Data as given in PubChem BioAssay AID1224826 (NIAID, 2016)
Aim: 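Regulators of Tlr4 signalling leading to Tnf-alpha expression in macrophages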 (primary screen). Cells: RAW264.7 G9 macrophages from mouse bearing reporters for p65 (GFP) and the Tnf promoter (mCherry). Knock-down reagent: siRNA pool against mouse genes, 100 nM. Timing: 16 h of LPS stimulation, after 2 days of siRNA transfection. Challenge: bacterial lipopolysaccharide (Salmonella minnesota R595), 10 ng/ml. Detection: 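Imaged Tnf reporter mCherry in nuclei, minus background, normalised per plate to the median and expressed as robust z-scores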. Direction: Tnf reporter robust z-score: higher = stronger Tnf promoter reporter signal after LPS; Tnf reporter intensity: higher = stronger Tnf promoter reporter signal. Active means: 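a well counts as active at a score of -1.3 or below (Tlr4 knock-down control median) or above 3 (raised signal); controls and wells holding fewer than 50 cells are excluded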. Meaning of the calls: active = Tnf reporter clearly lowered or raised; inactive = no clear change in Tnf reporter.
In all, the deposit lists about 17,000 reagents; this is a random part of them. About 1,110 of them (6.6%) count as active. 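Active means lowered or raised reporter signal; replicate intensities are raw and not normalised per plate.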 Reagents against one gene are numbered here.

target | reagent | Tnf reporter robust z-score | fewer than 50 cells in well | Tnf reporter intensity, replicate 1 | Tnf reporter intensity, replicate 2 | Outcome
Arhgef26 | 1 | – | fewer than 50 cells per well; well left out of calls | 100 | 45.7 | inactive
Cyp2r1 | 1 | 0.53 | enough cells in well | 135 | 210 | inactive
Lrrtm2 | 1 | 0.73 | enough cells in well | 276 | 149 | inactive
Rbbp6 | 1 | -1.26 | enough cells in well | 71.8 | 109 | inactive
Cpb2 | 1 | -0.45 | enough cells in well | 171 | 200 | inactive
C4a | 1 | 1.8 | enough cells in well | 358 | 225 | inactive
Or4a81 | 1 | 0.92 | enough cells in well | 302 | 112 | inactive
Cyp4f15 | 1 | -1.02 | enough cells in well | 116 | 121 | inactive
Tmsb10 | 1 | – | fewer than 50 cells per well; well left out of calls | 61.5 | 69.1 | inactive
Zfp652 | 1 | -0.43 | enough cells in well | 147 | 169 | inactive
Bdh2 | 1 | -0.58 | enough cells in well | 190 | 98.9 | inactive
Prmt3 | 1 | 0.4 | enough cells in well | 309 | 166 | inactive
Foxp4 | 1 | 0.45 | enough cells in well | 265 | 171 | inactive
Usp48 | 1 | 0.92 | enough cells in well | 225 | 46.6 | inactive
Clvs2 | 1 | 0.3 | enough cells in well | 174 | 185 | inactive
Cenpm | 1 | – | fewer than 50 cells per well; well left out of calls | 175 | 107 | inactive
Itgb7 | 1 | -0.19 | enough cells in well | 210 | 151 | inactive
Lad1 | 1 | -0.76 | enough cells in well | 196 | 61.2 | inactive
Foxj1 | 1 | 0.47 | enough cells in well | 359 | 217 | inactive
Stk17b | 1 | 1.39 | enough cells in well | 256 | 119 | inactive
Prpf4 | 1 | 1.45 | enough cells in well | 391 | 265 | inactive
Smarcb1 | 1 | 0.46 | enough cells in well | 300 | 268 | inactive
Or5b119 | 1 | 0.41 | enough cells in well | 196 | 144 | inactive
Dpf2 | 1 | 1.08 | enough cells in well | 305 | 291 | inactive
Fbxw7 | 1 | -0.94 | enough cells in well | 150 | 165 | inactive
Cdipt | 1 | -0.11 | enough cells in well | 150 | 181 | inactive
Tardbp | 1 | -1.6 | enough cells in well | 112 | 31.9 | active
Or4a75 | 1 | 1.21 | enough cells in well | 268 | 160 | inactive
Zbtb38 | 1 | -0.83 | enough cells in well | 100 | 136 | inactive
Foxk2 | 1 | 0.11 | enough cells in well | 149 | 180 | inactive
Aph1b | 1 | – | fewer than 50 cells per well; well left out of calls | 224 | 78.8 | inactive
Ece2 | 1 | 1.79 | enough cells in well | 338 | 169 | inactive
Ece2 | 2 | 0.91 | enough cells in well | 252 | 437 | inactive
Zfp422 | 1 | -0.17 | enough cells in well | 166 | 277 | inactive
Fam98b | 1 | 0.87 | enough cells in well | 304 | 96.4 | inactive
Pde7b | 1 | 0.73 | enough cells in well | 278 | 245 | inactive
Unkl | 1 | -0.53 | enough cells in well | 194 | 69 | inactive
Hunk | 1 | 0.06 | enough cells in well | 215 | 168 | inactive
Nlrp4a | 1 | 0.5 | enough cells in well | 205 | 143 | inactive
Polr2k | 1 | – | fewer than 50 cells per well; well left out of calls | 77 | 69.6 | inactive

3 consecutive reagents already listed, quoted:
target | reagent | Tnf reporter robust z-score | fewer than 50 cells in well | Tnf reporter intensity, replicate 1 | Tnf reporter intensity, replicate 2 | Outcome
Prmt3 | 1 | 0.4 | enough cells in well | 309 | 166 | inactive
Foxp4 | 1 | 0.45 | enough cells in well | 265 | 171 | inactive
Usp48 | 1 | 0.92 | enough cells in well | 225 | 46.6 | inactive
